PubChem BioAssay AID743121, NCATS, 2013
Shown is an unselected part of about 26,000 reagents. 167 of all reagents (0.63%) were called active. 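Calls are per gene from RSA p-values that are not deposited; an individual active-marked siRNA can sensitise only weakly.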 Reagents against one gene are numbered here.

Purpose: 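Partners whose loss is lethal together with topoisomerase I blockade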 (primary screen)
System: MDA-MB-231 cells, a human breast cancer line
Knock-down reagent: single siRNA against human genes, 20 nM siRNA (0.8 pmol per well)
Duration: 120 h (drug added 48 h after transfection, read 72 h later)
Conditions: camptothecin 20 nM (about EC30) for 72 h; vehicle 0.1% DMSO in parallel plates
Detection: 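Cell viability by ATP luminescence (CellTiter-Glo) as % of non-targeting siRNA wells, and the log2 ratio of viability without drug over viability with camptothecin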
Direction: log2 vehicle/camptothecin viability: higher = stronger sensitisation to camptothecin; viability with camptothecin and viability without drug: higher = more viable cells
Rule for the call: 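Each gene scored by redundant siRNA activity (RSA) over its individual siRNA ratios; a gene is called active at p < 0.001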

gene	reagent no.	log2 vehicle/camptothecin viability	viability with camptothecin (% of control)	viability without drug (% of control)	call
DMBT1 (GeneID 1755)	1	-0.328	85.6	68.2	inactive
DMBT1 (GeneID 1755)	2	0.00756	72.3	72.7	inactive
DMBT1 (GeneID 1755)	3	-0.434	98.5	72.9	inactive
DMBT1 (GeneID 1755)	4	-0.3	107	86.7	inactive
AGO2 (GeneID 27161)	1	-0.135	109	99	inactive
AGO2 (GeneID 27161)	2	-0.00622	89.6	89.2	inactive
AGO2 (GeneID 27161)	3	-0.21	108	93.4	inactive
AGO2 (GeneID 27161)	4	0.161	103	115	inactive
CDC45 (GeneID 8318)	1	-0.044	41.7	40.4	inactive
CDC45 (GeneID 8318)	2	-0.43	80.1	59.4	inactive
CDC45 (GeneID 8318)	3	-0.28	61.4	50.5	inactive
CDC45 (GeneID 8318)	4	-0.243	94.3	79.7	inactive
ITGB4 (GeneID 3691)	1	-0.215	66.7	57.5	inactive
ITGB4 (GeneID 3691)	2	-0.319	44.9	36	inactive
ITGB4 (GeneID 3691)	3	-0.157	105	94.2	inactive
ITGB4 (GeneID 3691)	4	-0.471	93.7	67.6	inactive
EHMT1 (GeneID 79813)	1	-0.0476	40.7	39.4	inactive
EHMT1 (GeneID 79813)	2	-0.0314	95.3	93.2	inactive
EHMT1 (GeneID 79813)	3	-0.208	103	89.4	inactive
EHMT1 (GeneID 79813)	4	-0.106	95.6	88.8	inactive
ROBO3 (GeneID 64221)	1	-0.32	88.1	70.5	inactive
ROBO3 (GeneID 64221)	2	-0.516	55.1	38.6	inactive
ROBO3 (GeneID 64221)	3	0.188	66.3	75.5	inactive
ROBO3 (GeneID 64221)	4	-0.119	99.5	91.6	inactive
OPN4 (GeneID 94233)	1	-0.522	79.2	55.2	inactive
OPN4 (GeneID 94233)	2	0.816	32.6	57.5	inactive
OPN4 (GeneID 94233)	3	-0.28	87.6	72.1	inactive
OPN4 (GeneID 94233)	4	0.362	42.4	54.5	inactive
CYP11B1 (GeneID 1584)	1	0.485	7.04	9.85	inactive
CYP11B1 (GeneID 1584)	2	-0.185	95.9	84.4	inactive
CYP11B1 (GeneID 1584)	3	-0.354	41.1	32.2	inactive
CYP11B1 (GeneID 1584)	4	-0.248	64.2	54.1	inactive
CLDN14 (GeneID 23562)	1	0.121	33.8	36.7	inactive
CLDN14 (GeneID 23562)	2	0.234	23.1	27.1	inactive
CLDN14 (GeneID 23562)	3	0.141	7.66	8.44	inactive
CLDN14 (GeneID 23562)	4	-0.19	73.2	64.2	inactive
MMP20 (GeneID 9313)	1	-0.219	88.6	76.1	inactive
MMP20 (GeneID 9313)	2	-0.568	82.9	55.9	inactive
MMP20 (GeneID 9313)	3	0.309	64.4	79.8	inactive
MMP20 (GeneID 9313)	4	-0.103	84.2	78.4	inactive

An excerpt from the list above, as a working copy:
gene	reagent no.	log2 vehicle/camptothecin viability	viability with camptothecin (% of control)	viability without drug (% of control)	call
DMBT1 (GeneID 1755)	3	-0.434	98.5	72.9	inactive
DMBT1 (GeneID 1755)	4	-0.3	107	86.7	inactive
AGO2 (GeneID 27161)	1	-0.135	109	99	inactive
AGO2 (GeneID 27161)	2	-0.00622	89.6	89.2	inactive
AGO2 (GeneID 27161)	3	-0.21	108	93.4	inactive

The listing continues.
gene	reagent no.	log2 vehicle/camptothecin viability	viability with camptothecin (% of control)	viability without drug (% of control)	call
RAD50 (GeneID 10111)	1	-0.365	69.8	54.2	inactive
RAD50 (GeneID 10111)	2	-0.185	112	98.9	inactive
RAD50 (GeneID 10111)	3	-0.0862	91.3	86	inactive
ITGA4 (GeneID 3676)	1	-0.341	68.8	54.3	inactive
ITGA4 (GeneID 3676)	2	0.21	71.6	82.8	inactive
ITGA4 (GeneID 3676)	3	-0.631	81	52.3	inactive
ITGA4 (GeneID 3676)	4	-0.0608	94	90.1	inactive
LIG3 (GeneID 3980)	1	-0.346	52.4	41.2	inactive
LIG3 (GeneID 3980)	2	-0.542	61	41.9	inactive
LIG3 (GeneID 3980)	3	0.596	25.7	38.8	inactive
LIG3 (GeneID 3980)	4	-0.179	77.5	68.4	inactive
CYP4F2 (GeneID 8529)	1	-0.531	85.9	59.5	inactive
CYP4F2 (GeneID 8529)	2	-0.114	114	105	inactive
VAT1L (GeneID 57687)	1	-0.574	48.5	32.6	inactive
VAT1L (GeneID 57687)	2	-0.0136	105	104	inactive
VAT1L (GeneID 57687)	3	-0.32	63.4	50.8	inactive
VAT1L (GeneID 57687)	4	-0.33	73.8	58.7	inactive
PHKA2 (GeneID 5256)	1	-0.133	46	41.9	inactive
PHKA2 (GeneID 5256)	2	-0.256	62.1	52	inactive
PHKA2 (GeneID 5256)	3	-0.0591	92	88.3	inactive
PHKA2 (GeneID 5256)	4	-0.36	65.1	50.7	inactive
SERPINB5 (GeneID 5268)	1	-0.325	117	93.7	inactive
SERPINB5 (GeneID 5268)	2	-0.641	75.5	48.4	inactive
SERPINB5 (GeneID 5268)	3	-0.1	87.9	82	inactive
SERPINB5 (GeneID 5268)	4	-0.246	105	88.4	inactive
PSMA8 (GeneID 143471)	1	-0.533	85.7	59.2	inactive
PSMA8 (GeneID 143471)	2	-0.0433	57.6	55.9	inactive
PSMA8 (GeneID 143471)	3	-0.376	73	56.2	inactive
PSMA8 (GeneID 143471)	4	-0.576	54.9	36.8	inactive
